# Experimental data: PubChem BioAssay AID624291 (National Center for Advancing Translational Sciences (NCATS), 2012)
# The campaign covered roughly 350,000 compounds. About 220 (0.063%) were called active. Inconclusive results, whose numbers are uncertain, are shown with a selection of clear calls. The call rests on the fitted dose curve; in most records, active means well fitted activation curve with a large enough effect; inconclusive means small, poorly fitted or top-dose-only effect; inactive means no such curve, though single readings can be large or run the other way. Potencies of inconclusive entries are doubtful fits and often do not repeat.
# Test: qHTS for Activators of Integrin-Mediated Alleviation for Muscular Dystrophy; further: nearly all actives have a fitted effect of over 60% in size;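 on activation: 100% = response of the positive control SU9516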
# Settings: alpha7betagal myoblasts, beta-gal FDG fluorescence, 48 h; activation: at 38.3 µM (top of the series)
# How it was run: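 alpha7betagal+/- myoblasts (passage 13, 250/well) treated 48 h at 37C with compounds at 1:260 dilution of DMSO stock. Lysed, then beta-galactosidase activity read as FDG fluorescence (ex 480/em 540) after 30 min, with pre-read for autofluorescence.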
# Potency means the concentration at half of the fitted maximal effect.
SMILES,Potency,activation
CC1=C(C(N)=O)S(=O)(=O)c2ccccc21,"inconclusive: 15.8 µM [activator, single point]",–
Cc1cccn2cc(-c3ccc4c(c3)NC(=O)CO4)nc12,"inconclusive: 11.2 µM [activator, partial curve, poor fit]",–
O=C(CSc1nnc(-c2ccco2)n1-c1ccccc1Cl)Nc1cccc(C(=O)O)c1,"inconclusive: 1.58 µM [activator, partial curve, poor fit]",–
O=C(c1cccc([N+](=O)[O-])c1)c1ccc2c(c1)C(=O)NC2=O,"inconclusive: 6.31 µM [activator, partial curve, poor fit]",–
COc1ccc(C2CC(=O)N(CC(=O)NCC3CCCO3)c3ccccc3S2)cc1 (stereo unspecified),"inconclusive: 1.41 µM [activator, partial curve, poor fit]",–
Cc1nc([N+](=O)[O-])c(C(=O)OCc2ccccc2Br)n1C,–,inactive: 16.6%
CN(CC(=O)NCCc1ccccc1)S(=O)(=O)c1ccc(Br)s1,"inconclusive: 28.2 µM [activator, single point]",–
CSCCC(NC(=O)c1cccc(C)c1)C(=O)O (stereo unspecified),"inconclusive: 22.4 µM [activator, single point]",–
COc1ccc(C(=O)C2CCN(CC(=O)NCc3ccccc3)CC2)cc1,"inconclusive: 2.51 µM [activator, partial curve, poor fit]",–
COc1cccc(NC(=S)N(CCCN2CCOCC2)C(C)c2cc3ccccc3o2)c1 (stereo unspecified),–,inconclusive: -0.897% [activator]
Nc1nc(C23CC4CC(CC(C4)C2)C3)[nH]c(=O)n1,"inconclusive: 2 µM [activator, single point]",–
Cc1nc2c(o1)C(=O)c1ccccc1C2=Nc1ccccc1,–,inactive: -55.5%
Cn1c(=O)[nH]c(=O)c2c1ncn2CCN1CCOCC1,"inconclusive: 5.62 µM [activator, partial curve, poor fit]",–
COc1ccc(C(=O)C2CCN(C(=S)Nc3ccc(F)cc3)CC2)cc1,–,inactive: -23.2%
Cc1ccc(NC(=O)c2cc(-c3ccc(F)cc3)on2)cc1C,–,inactive: 11.1%
OCC1(Cc2ccc(F)cc2)CCCN(CCCC(F)(F)F)C1 (stereo unspecified),"inconclusive: 10 µM [activator, single point]",–
CN1CCN(C(=S)c2ccc(Cl)cc2)CC1,–,inactive: 5.32%
CC(C)COc1ccc(C(=O)NNC(=O)c2ccc(=O)[nH]c2)cc1,"inconclusive: 28.2 µM [activator, single point]",–
COc1cc(OC)cc(C(=O)NNC(=O)CCCOc2ccccc2)c1,"inconclusive: 4.47 µM [activator, single point]",–
C#CCN(C(=O)c1ccc(OC2CCN(Cc3ccccn3)CC2)cc1)C1CCCCC1,"inconclusive: 3.55 µM [activator, single point]",–
COc1ccc(N2CCN(S(=O)(=O)c3cn(C)c(=O)n(C)c3=O)CC2)cc1,"inconclusive: 3.16 µM [activator, single point]",–
Cc1ccc2c(c1)COc1c3ccc(C(=O)N[C@@H](C)CO)cc3nn1-2,–,inactive: 30.1%
COc1ccc(N2CCN(CCN3C(=O)c4ccccc4C3=O)CC2)cc1,"inconclusive: 2.51 µM [activator, partial curve, poor fit]",–
OC(CNCc1ccccc1)COc1ccccc1 (stereo unspecified),–,inactive: 22.2%

# Reformatted with bars between the fields: two of the compounds above.
SMILES | Potency | activation
Cc1cccn2cc(-c3ccc4c(c3)NC(=O)CO4)nc12 | inconclusive: 11.2 µM [activator, partial curve, poor fit] | –
OC(CNCc1ccccc1)COc1ccccc1 (stereo unspecified) | – | inactive: 22.2%

# (cont.)

SMILES,Potency,activation
O=C(NC12CC3CC(CC(C3)C1)C2)c1ccc([N+](=O)[O-])o1,–,inactive: -44.8%
O=C(O)c1cccc(N2C(=O)c3ccc(Oc4ccc(Cl)cc4)cc3C2=O)c1,–,inactive: 11.9%
Cc1c(CN2CCCC(C(=O)Nc3cccc(-n4cccn4)c3)C2)cnn1C (stereo unspecified),"inconclusive: 4.47 µM [activator, single point]",–
O=C(N/N=C/c1ccccn1)c1cccc(S(=O)(=O)Nc2ccccc2Cl)c1,"inconclusive: 0.447 µM [activator, partial curve, poor fit]",–
CCOC(=O)Cn1ccc(NC(=O)COc2ccc(F)cc2F)n1,"inconclusive: 5.01 µM [activator, single point]",–
C=CCN1C(=O)C(CC(=O)Nc2ccccc2)S/C1=N/c1nccs1 (stereo unspecified),"inconclusive: 3.98 µM [activator, single point]",–
Cc1cc(C)cc(C(=O)NCC(=O)OCC(=O)c2cc(C)n(CC(F)(F)F)c2C)c1,"inconclusive: 10 µM [activator, single point]",–
CCOc1ccc(C(=O)NC(C(=O)N2CCC2)C(C)C)cc1 (stereo unspecified),–,inactive: 13.3%
CCOC(=O)C1(Cc2cccc(Cl)c2)CCCN(C(=O)c2cc(C)n(C)n2)C1 (stereo unspecified),"inconclusive: 2.82 µM [activator, single point]",–
CCCc1nn(C)c(C(=O)Nc2ccc(C(C)(C)C)cc2)c1Cl,–,inactive: -17.1%
Cc1ccc(Sc2ncccc2C(=O)NCC(c2ccc(F)cc2)N2CCOCC2)cc1C (stereo unspecified),–,inactive: 0%
COc1cccc2c1C(=O)c1c(O)c3c(c(O)c1C2=O)CC(O)(C(C)=O)CC3OC1CC(N(C)C)C(O)C(C)O1 (stereo unspecified),–,inconclusive: -55.2% [activator]
COc1ccccc1CNC(=O)CSc1nc(C)cs1,–,inactive: 0%
O=C(CCc1ccccc1)NNC(=O)c1ccc(F)cc1,"inconclusive: 2.82 µM [activator, single point]",–
Cc1ccc(S(=O)(=O)NCC(c2ccccc2)N2CCN(CCC#N)CC2)cc1 (stereo unspecified),"inconclusive: 25.1 µM [activator, single point]",–
Cc1occc1-c1nnc(SCC(=O)NC2CCC(C)CC2)o1 (stereo unspecified),"inconclusive: 5.01 µM [activator, single point]",–
CC(C)(C)c1ccccc1OCCCCN1CCCC1,–,inactive: -32%
S=c1nc(-c2cc(Cl)cc(Cl)c2)[nH][nH]1,–,inactive: 26.5%
Cc1ccc(-c2nc(-c3ccccn3)sc2CC(=O)O)cc1,"inconclusive: 1.26 µM [activator, partial curve, poor fit]",–
CCOC(=O)COc1ccc2c(c1)c(C(C)=O)c(C)n2-c1ccccc1,"inconclusive: 0.316 µM [activator, full curve, poor fit]",–
Cc1cccc(Nc2ccc(NCc3ccccc3)nn2)c1,"inconclusive: 2.51 µM [activator, single point]",–
Nc1nnc(-c2cccc(F)c2)s1,"inconclusive: 5.01 µM [activator, single point]",–
COc1ccc(S(=O)(=O)N2CCC(C(=O)NCC(=O)Nc3c(C)cccc3C)CC2)cc1OC,"inconclusive: 3.16 µM [activator, partial curve, poor fit]",–
Cn1c(=O)oc2cc(S(=O)(=O)NC3CCCCC3)ccc21,"inconclusive: 28.2 µM [activator, single point]",–

SMILES,Potency,activation
Cc1cc2ncn(S(=O)(=O)c3ccc(S(=O)(=O)N4CCOCC4)cc3)c2cc1C,"inconclusive: 4.47 µM [activator, single point]",–
Cc1ccc2nc(N(CCN(C)C)C(=O)/C=C/c3cccs3)sc2c1,–,inactive: -11.1%
COC(=O)/C=C1/S/C(=N/N=C/c2ccco2)NC1=O,–,inactive: -6.21%
O=C(CSc1n[nH]c(-c2ccc(S(=O)(=O)N3CCCCC3)cc2)n1)Nc1nccs1,–,inactive: 5.37%
COc1ccc(C/C(C)=N/NC(=O)c2ccc(Cl)cc2)cc1,"inconclusive: 25.1 µM [activator, single point]",–
O=C(c1cc(-c2ccccc2O)on1)N1CCOCC1,"inconclusive: 3.98 µM [activator, partial curve, poor fit]",–
COc1ccc(CNC(=O)C2CCN(S(C)(=O)=O)CC2)c(OC)c1,"inconclusive: 3.16 µM [activator, full curve, poor fit]",–
CN(/N=C/c1ccc([N+](=O)[O-])o1)c1ccccc1,–,inactive: 14.5%
COC(CNc1ncnc2sc(-c3ccccc3)cc12)OC,"inconclusive: 28.2 µM [activator, single point]",–
CC1(C)N=C(c2ccccn2)C(C)(C)N1O,"inconclusive: 3.55 µM [activator, partial curve, poor fit]",–
COc1ccccc1N(/N=C1\Sc2ccccc2C1=O)C(C)=O,–,inconclusive: -62% [activator]
CCOc1ccc(N2CC(C(=O)N3CCCCC3)CC2=O)cc1 (stereo unspecified),–,inactive: 10.1%
CCN(C(=O)COC(=O)c1ccc(=O)n(Cc2ccccc2)n1)C1CCCCC1,"inconclusive: 5.01 µM [activator, single point]",–
CCCC(c1nnnn1Cc1cccs1)N1CCN(C2CCCC2)CC1 (stereo unspecified),–,inactive: -21.8%
COc1ccc(OC)c(/C=C2\SC(=S)N(NS(=O)(=O)c3ccc(C)cc3)C2=O)c1,"inconclusive: 4.47 µM [activator, single point]",–
N#CCSc1nc(-c2ccccc2)nc2ccccc12,–,inactive: -12.5%
N#CCCN(C(=O)COC(=O)CCc1ccccc1)c1ccccc1,–,inactive: 6.23%
COc1ccc(Cl)cc1Nc1nc2ccc(C)cc2n2cnnc12,"inconclusive: 28.2 µM [activator, single point]",–
CNS(=O)(=O)c1cccc(C(=O)OCC(=O)N2c3ccccc3NC(=O)C2(C)C)c1,"inconclusive: 5.01 µM [activator, single point]",–
O=C(NCCc1cccc(F)c1)/C(=C/c1cccnc1)NC(=O)c1ccccc1,"inconclusive: 28.2 µM [activator, single point]",–
COc1ccc(/C=N/NS(=O)(=O)c2ccc(C)cc2)cc1,"inconclusive: 1.12 µM [activator, partial curve, poor fit]",–
CCOC(=O)C1(CC)NC(c2ccc(OC)cc2OC)C2C(=O)N(C)C(=O)C21 (stereo unspecified),"inconclusive: 5.01 µM [activator, single point]",–
Cc1ccc(S(=O)(=O)Nc2ccc3c(c2)C(=O)N([C@H](C)CO)C[C@H](C)[C@H](CN(C)C(=O)Nc2cccc4ccccc24)OCCCC[C@@H](C)O3)cc1,–,inactive: -5.14%

# Ordered by SMILES length (ascending): part of the list above
SMILES,Potency,activation
Nc1nnc(-c2cccc(F)c2)s1,"inconclusive: 5.01 µM [activator, single point]",–
Cc1ccc(NC(=O)c2cc(-c3ccc(F)cc3)on2)cc1C,–,inactive: 11.1%
COc1cccc(NC(=S)N(CCCN2CCOCC2)C(C)c2cc3ccccc3o2)c1 (stereo unspecified),–,inconclusive: -0.897% [activator]
